Measured values from paper PMC9057631.
No constants are given. Whether binding was seen depends on the method and setting. In cells and extracts the contact can be indirect. Some binding calls cover weakened binding; strength is not graded here.

By UniProt entry, the sequences of proteins in these tests, tags left out.
UniProt P40763: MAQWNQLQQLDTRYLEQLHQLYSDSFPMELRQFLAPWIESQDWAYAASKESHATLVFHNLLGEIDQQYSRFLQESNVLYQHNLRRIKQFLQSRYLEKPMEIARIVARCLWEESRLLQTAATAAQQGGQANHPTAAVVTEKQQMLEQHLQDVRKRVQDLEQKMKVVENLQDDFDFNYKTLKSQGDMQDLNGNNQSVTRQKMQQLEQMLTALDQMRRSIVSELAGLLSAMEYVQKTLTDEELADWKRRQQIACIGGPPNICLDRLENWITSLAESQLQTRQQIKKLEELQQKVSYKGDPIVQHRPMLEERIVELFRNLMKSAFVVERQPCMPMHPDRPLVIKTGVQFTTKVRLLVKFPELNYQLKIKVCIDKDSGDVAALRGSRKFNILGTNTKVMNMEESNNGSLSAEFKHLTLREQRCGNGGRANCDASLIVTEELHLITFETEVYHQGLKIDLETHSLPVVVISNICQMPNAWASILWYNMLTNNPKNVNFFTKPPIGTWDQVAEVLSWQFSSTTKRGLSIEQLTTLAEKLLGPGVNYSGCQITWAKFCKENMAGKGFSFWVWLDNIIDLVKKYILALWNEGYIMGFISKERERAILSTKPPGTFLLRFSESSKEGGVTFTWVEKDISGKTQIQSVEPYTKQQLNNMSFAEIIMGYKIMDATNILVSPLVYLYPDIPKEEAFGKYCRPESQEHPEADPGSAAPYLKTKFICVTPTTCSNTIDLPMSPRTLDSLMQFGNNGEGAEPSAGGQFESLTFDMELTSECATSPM
UniProt Q13887: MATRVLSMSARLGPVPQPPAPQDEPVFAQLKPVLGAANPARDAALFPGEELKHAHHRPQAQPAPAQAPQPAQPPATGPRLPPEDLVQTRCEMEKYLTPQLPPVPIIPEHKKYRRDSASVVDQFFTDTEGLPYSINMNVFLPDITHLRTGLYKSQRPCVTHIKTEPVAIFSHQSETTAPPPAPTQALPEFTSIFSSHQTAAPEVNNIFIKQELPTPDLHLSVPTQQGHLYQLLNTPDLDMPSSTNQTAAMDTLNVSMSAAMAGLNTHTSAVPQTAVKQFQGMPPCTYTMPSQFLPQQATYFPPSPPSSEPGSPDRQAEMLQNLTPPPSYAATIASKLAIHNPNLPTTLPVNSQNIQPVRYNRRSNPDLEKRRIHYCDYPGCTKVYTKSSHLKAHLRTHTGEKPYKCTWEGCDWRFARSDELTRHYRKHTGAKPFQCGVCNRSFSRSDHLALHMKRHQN

How the values were obtained:
[1] = molecular target: phosphorylated STAT3 (p-STAT3), endogenous in C2BBE^Ctrl cells (human (endogenous in Caco-2BBE)) (UniProt P40763); experiment: co-IP; endogenous proteins in C2BBE^Ctrl cells after rIL-22 (100 ng/mL, 1 hour); Active Motif Nuclear Complex Co-IP kit; precipitation with p-STAT3 antibody or rabbit anti-KLF5 antibody, Western blot
[2] = molecular target: Krüppel-like factor 5 (KLF5), endogenous in C2BBE^Ctrl cells (human (endogenous in Caco-2BBE)) (UniProt Q13887); experiment: as above
[3] = molecular target: HA-tagged human KLF5 (HA-hKLF5) (human) (UniProt Q13887); experiment: co-IP; HEK293T cells transfected with HA-hKLF5, rIL-22 (100 ng/mL, 1 hour); Active Motif Nuclear Complex Co-IP kit; precipitation with mouse anti-HA antibody, Western blot for p-STAT3

**Q.** Which binding [1] does the source give for “Krüppel-like factor 5 (KLF5), endogenous in C2BBE^Ctrl cells (from UniProt Q13887 1-457)” here?
**A.** Its binding is “binds”.

**Q.** How did the binding [2] turn out when “phosphorylated STAT3 (p-STAT3), endogenous in C2BBE^Ctrl cells (from UniProt P40763 1-770)” was run?
**A.** The binding was “binds”.

**Q.** With “phosphorylated STAT3 (p-STAT3), endogenous in HEK293T cells (from UniProt P40763 1-770)” as the substance, how does the binding [3] read?
**A.** The binding was “binds”.
